No constants are given. Whether binding was seen depends on the method and setting. Some entries that bind do so weakly or less than the wild type.
Molecular target: recombinant CD33 protein pre-labeled with Phycoerythrin (PE) (UniProt P20138)
Assay: flow cytometry, CAR on Jurkat reporter cells stained with PE-labeled recombinant CD33

By UniProt entry, the sequences of proteins in these tests, tags left out. Where a name states a change or a piece, a line headed by the entry shows the natural chain unless it says otherwise. Residues count along the entry.
UniProt P20138, residues 18-259: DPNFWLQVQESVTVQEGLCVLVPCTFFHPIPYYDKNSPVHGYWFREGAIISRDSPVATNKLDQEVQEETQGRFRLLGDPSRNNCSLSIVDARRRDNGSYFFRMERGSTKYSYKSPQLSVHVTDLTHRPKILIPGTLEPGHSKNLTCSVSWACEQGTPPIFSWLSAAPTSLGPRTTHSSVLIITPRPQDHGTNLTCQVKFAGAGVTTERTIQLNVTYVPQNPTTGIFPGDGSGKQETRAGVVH
UniProt P01637: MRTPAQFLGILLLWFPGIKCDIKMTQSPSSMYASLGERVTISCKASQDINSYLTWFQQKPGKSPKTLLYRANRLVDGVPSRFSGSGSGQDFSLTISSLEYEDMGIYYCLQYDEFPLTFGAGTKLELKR
UniProt P01647: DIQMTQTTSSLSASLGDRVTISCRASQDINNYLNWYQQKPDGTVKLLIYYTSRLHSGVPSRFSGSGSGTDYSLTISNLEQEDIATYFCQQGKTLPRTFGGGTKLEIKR

Substance	binding
anti-CD33 CAR "CAR-7" (from UniProt P01637 21-128)	binds
anti-CD33 CAR "CAR-9" (from UniProt P01647 1-107)	binds

From patent publication US20260048125A1
